The list shows a part of the results. Small differences around the control level are noise.
compound: CN[C@@H]1C[C@H]2O[C@@](C)([C@@H]1OC)n1c3ccccc3c3c4c(c5c6ccccc6n2c5c31)C(=O)NC4 [staurosporine]; assay: log2 fold change of tryptic peptide abundance, ligand vs vehicle (limited proteolysis) (log2 ratio); higher = more trypsin-susceptible (destabilized); conditions: ligand concentration: 20 uM; sample: K562 cleared lysate; digestion: 4 min, 22 C (HT-PELSA RT4min, Orbitrap Astral)

Sequences of proteins named here, by UniProt entry; tags and fusion partners are left off. A change or cut given only in a name is not applied to a line headed by its entry.
UniProt O15131, whole entry: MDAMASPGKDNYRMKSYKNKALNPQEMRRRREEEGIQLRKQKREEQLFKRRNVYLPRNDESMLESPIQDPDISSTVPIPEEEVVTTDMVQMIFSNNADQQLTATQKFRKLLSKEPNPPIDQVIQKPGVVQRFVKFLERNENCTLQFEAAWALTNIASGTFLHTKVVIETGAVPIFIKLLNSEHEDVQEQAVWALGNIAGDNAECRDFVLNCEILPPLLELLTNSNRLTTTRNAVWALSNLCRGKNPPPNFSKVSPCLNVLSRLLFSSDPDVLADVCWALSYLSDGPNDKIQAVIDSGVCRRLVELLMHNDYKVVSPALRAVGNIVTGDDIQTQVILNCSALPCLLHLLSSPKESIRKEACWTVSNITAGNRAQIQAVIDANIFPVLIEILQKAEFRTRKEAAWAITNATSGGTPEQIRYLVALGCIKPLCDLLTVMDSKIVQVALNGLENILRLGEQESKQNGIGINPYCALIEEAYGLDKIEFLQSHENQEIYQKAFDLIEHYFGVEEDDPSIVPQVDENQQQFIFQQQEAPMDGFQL
UniProt O14763, whole entry: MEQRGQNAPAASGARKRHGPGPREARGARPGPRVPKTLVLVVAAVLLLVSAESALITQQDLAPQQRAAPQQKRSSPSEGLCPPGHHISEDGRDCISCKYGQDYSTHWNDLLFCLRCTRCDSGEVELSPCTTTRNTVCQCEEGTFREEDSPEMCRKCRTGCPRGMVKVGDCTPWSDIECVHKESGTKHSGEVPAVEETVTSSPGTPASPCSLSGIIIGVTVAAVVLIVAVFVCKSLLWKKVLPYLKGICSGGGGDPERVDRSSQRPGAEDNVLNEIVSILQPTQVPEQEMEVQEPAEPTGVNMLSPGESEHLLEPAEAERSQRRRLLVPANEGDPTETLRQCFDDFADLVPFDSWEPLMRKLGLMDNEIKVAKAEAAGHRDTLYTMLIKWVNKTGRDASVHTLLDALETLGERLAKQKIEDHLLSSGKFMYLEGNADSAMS
UniProt A6NNY8: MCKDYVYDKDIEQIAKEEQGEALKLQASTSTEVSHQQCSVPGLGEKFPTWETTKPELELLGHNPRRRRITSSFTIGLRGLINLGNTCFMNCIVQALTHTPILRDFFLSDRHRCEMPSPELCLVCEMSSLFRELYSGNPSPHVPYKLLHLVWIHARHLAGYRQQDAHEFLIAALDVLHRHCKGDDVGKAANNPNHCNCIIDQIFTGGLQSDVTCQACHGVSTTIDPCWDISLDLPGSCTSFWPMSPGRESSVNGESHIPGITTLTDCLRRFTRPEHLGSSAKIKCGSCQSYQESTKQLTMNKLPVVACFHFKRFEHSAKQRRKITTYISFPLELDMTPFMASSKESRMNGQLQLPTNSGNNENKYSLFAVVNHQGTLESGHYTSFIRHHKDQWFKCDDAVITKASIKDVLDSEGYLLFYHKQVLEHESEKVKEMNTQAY
UniProt O14791: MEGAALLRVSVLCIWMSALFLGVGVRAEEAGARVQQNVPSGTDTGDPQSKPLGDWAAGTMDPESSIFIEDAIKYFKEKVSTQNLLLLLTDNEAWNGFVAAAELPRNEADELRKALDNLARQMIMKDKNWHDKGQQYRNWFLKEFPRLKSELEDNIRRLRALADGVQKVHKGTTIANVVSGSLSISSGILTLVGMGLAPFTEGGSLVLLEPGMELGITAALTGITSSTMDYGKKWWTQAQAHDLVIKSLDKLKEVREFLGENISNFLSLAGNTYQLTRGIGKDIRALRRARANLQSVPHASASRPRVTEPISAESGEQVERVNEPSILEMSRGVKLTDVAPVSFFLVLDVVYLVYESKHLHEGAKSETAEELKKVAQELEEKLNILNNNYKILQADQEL
UniProt O15231: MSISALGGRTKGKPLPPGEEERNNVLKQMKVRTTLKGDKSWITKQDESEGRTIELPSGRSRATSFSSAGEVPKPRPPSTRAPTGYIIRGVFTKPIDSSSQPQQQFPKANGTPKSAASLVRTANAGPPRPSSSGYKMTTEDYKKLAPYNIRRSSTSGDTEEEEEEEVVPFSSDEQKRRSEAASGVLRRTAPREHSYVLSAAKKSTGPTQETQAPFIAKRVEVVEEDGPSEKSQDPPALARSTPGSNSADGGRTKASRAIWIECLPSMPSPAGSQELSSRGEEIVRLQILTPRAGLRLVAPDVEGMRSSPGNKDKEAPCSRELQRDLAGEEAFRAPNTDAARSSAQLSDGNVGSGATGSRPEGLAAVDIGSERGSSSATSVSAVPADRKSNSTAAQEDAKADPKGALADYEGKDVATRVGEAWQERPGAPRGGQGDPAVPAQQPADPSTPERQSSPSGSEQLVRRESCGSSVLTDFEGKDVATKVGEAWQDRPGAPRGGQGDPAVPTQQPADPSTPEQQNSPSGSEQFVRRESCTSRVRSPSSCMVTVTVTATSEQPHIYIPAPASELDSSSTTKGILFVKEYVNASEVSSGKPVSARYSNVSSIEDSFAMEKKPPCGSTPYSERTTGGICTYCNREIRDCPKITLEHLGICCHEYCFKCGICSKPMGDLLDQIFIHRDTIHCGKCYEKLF
UniProt O15015: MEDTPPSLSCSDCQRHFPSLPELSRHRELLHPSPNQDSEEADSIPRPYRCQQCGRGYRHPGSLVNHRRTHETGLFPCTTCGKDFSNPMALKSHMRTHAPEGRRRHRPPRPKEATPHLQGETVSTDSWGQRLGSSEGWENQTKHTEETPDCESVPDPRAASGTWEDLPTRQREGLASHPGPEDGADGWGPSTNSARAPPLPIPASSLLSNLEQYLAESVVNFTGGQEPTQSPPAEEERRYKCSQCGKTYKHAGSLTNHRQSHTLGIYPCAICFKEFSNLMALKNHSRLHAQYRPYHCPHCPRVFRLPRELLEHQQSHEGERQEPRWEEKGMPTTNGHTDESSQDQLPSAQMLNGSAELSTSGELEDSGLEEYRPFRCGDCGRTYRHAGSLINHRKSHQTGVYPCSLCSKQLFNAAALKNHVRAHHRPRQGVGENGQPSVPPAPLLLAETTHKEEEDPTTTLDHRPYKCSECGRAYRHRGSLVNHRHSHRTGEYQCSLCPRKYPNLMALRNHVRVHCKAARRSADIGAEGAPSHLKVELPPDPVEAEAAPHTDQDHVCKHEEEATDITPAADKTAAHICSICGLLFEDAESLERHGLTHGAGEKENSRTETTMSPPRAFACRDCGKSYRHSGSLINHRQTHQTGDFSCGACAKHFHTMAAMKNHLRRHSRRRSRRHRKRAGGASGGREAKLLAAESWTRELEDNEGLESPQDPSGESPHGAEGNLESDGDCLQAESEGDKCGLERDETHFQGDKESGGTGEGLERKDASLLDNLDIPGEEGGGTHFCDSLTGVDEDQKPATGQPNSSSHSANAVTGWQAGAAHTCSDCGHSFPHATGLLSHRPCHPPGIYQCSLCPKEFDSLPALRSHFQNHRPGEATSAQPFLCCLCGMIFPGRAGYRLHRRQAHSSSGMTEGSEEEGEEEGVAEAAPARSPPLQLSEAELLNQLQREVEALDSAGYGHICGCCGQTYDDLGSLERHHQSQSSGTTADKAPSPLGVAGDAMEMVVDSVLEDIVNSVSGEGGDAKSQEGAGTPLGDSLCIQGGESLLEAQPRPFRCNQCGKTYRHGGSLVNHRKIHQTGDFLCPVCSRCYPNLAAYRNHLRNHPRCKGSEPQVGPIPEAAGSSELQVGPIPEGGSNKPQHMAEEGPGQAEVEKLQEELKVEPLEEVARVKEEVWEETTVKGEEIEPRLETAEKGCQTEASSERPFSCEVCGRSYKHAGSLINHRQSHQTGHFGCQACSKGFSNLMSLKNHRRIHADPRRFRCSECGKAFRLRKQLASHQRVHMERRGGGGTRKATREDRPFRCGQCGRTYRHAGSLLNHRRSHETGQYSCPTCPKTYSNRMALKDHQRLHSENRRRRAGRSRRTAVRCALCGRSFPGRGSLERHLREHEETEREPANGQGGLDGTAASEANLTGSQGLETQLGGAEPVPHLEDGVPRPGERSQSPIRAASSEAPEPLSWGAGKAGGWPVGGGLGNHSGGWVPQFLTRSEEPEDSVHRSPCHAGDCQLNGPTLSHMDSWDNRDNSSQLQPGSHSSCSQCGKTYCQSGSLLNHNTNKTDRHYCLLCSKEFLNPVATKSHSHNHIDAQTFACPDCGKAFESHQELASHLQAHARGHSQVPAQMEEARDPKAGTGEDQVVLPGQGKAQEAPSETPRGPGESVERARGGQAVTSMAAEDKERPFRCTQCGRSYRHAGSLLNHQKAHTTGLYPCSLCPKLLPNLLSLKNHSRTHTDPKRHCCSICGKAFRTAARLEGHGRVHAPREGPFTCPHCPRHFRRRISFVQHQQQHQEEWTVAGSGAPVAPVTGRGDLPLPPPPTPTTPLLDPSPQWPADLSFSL
UniProt O15198: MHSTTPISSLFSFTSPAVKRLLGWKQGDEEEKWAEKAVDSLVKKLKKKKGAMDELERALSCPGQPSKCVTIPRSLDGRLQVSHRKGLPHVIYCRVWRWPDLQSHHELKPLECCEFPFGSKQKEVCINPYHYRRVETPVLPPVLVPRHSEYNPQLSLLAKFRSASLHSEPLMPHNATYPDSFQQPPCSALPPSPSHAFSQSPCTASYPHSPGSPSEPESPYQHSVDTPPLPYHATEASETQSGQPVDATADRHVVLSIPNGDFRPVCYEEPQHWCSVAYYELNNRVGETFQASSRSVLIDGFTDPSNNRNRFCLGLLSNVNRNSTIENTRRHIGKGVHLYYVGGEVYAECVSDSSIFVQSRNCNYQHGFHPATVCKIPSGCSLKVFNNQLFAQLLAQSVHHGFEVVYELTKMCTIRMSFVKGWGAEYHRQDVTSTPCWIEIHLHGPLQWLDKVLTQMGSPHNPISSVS
UniProt O00233: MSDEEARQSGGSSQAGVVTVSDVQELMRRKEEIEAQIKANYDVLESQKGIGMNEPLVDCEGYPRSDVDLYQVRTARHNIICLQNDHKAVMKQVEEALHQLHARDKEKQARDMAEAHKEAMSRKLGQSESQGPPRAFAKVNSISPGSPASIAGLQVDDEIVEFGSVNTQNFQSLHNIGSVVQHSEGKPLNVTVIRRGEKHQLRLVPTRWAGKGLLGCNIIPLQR

Target	log2 fold change
KPNA5 (peptide sequence: ALNPQEMR, peptide start residue: 21) (UniProt O15131)	0.0413
SUPT5H (peptide sequence: DQREEELGEYYMK, peptide start residue: 131) (UniProt O00267)	-0.163
TNFRSF10B (peptide sequence: DASVHTLLDALETLGER, peptide start residue: 396) (UniProt O14763)	-0.476
UniProt B3KNS4 (peptide sequence: RDPWYSTVGLLPPVR, peptide start residue: 20)	-0.0781
USP27X (peptide sequence: QQDAHEFLIAALDVLHR, peptide start residue: 162) (UniProt A6NNY8)	0.4
APOL1 (peptide sequence: ANLQSVPHASASRPR, peptide start residue: 291) (UniProt O14791)	0.206
UniProt O15231 (peptide sequence: EYVNASEVSSGKPVSAR, peptide start residue: 580)	-0.301
ZNF646 (peptide sequence: SADIGAEGAPSHLK, peptide start residue: 521) (UniProt O15015)	-0.611
SMAD9 (peptide sequence: GLPHVIYCR, peptide start residue: 83) (UniProt O15198)	0.265
PSMD9 (peptide sequence: DMAEAHKEAMSR, peptide start residue: 111) (UniProt O00233)	0.329
